Assay results published in the supplement of paper PMC12819154, “High-throughput peptide-centric local stability assay extends protein–ligand identification to membrane proteins, tissues and bacteria” (Nature Structural & Molecular Biology, 2025).
This is one part of the list. Small differences around the control level are noise.

Amino acid sequences for entries named in this document (tags omitted). A change or cut given only in a name is not applied to a line headed by its entry.
UniProt Q9D7J4: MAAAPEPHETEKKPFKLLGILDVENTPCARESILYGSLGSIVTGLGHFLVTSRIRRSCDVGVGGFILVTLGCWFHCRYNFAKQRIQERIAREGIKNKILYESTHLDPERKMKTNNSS
UniProt Q9D1J1: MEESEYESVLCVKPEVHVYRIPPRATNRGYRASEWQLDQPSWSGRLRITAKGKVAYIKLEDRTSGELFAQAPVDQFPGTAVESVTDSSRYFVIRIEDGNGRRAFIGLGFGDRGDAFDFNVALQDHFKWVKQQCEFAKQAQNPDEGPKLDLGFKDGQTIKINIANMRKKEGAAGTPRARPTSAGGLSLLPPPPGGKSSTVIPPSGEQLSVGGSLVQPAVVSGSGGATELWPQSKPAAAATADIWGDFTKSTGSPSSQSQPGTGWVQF
UniProt Q9D8X2: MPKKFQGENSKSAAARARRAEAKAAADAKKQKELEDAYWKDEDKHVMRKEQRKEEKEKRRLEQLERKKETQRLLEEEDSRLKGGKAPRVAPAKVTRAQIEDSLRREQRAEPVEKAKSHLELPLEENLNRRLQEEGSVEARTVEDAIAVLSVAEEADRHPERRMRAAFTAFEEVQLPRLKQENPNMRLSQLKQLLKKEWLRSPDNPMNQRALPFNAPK
UniProt Q9D7B6: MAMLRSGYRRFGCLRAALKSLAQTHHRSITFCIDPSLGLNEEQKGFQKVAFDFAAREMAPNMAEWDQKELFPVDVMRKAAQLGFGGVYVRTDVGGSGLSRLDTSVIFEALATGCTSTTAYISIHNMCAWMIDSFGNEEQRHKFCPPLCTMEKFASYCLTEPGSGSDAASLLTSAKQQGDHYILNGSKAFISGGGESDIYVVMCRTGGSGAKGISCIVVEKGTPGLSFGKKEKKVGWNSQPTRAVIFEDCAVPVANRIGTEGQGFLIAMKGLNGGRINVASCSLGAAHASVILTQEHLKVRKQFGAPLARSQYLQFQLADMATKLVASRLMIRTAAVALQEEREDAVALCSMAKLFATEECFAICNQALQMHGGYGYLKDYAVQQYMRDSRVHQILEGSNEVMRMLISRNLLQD
UniProt Q9D4H4: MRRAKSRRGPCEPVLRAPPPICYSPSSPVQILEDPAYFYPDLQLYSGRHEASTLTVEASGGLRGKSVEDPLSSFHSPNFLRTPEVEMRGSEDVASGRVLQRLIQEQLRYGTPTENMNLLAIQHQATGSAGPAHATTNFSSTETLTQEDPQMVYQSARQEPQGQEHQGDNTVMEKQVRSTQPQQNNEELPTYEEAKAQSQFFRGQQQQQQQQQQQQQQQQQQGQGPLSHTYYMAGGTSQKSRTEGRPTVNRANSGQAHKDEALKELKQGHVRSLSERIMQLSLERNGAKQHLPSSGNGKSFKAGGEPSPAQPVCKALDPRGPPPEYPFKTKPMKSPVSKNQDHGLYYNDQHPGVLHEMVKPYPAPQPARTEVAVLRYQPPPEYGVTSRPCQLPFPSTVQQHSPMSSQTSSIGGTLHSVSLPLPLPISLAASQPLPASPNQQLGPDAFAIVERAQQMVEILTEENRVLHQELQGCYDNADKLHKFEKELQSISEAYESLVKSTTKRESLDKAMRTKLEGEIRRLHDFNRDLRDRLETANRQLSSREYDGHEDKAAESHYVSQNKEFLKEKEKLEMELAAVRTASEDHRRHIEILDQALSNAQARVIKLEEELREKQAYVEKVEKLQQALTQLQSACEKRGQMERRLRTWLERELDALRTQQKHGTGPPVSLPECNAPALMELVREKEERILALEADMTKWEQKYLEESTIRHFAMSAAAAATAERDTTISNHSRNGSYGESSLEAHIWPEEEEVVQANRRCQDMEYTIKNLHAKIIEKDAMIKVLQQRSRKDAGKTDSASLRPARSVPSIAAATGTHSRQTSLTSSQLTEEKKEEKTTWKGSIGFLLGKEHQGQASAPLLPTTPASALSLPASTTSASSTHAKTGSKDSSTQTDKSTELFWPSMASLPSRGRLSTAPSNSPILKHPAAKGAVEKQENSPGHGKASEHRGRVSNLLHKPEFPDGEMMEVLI
UniProt Q9D8K8: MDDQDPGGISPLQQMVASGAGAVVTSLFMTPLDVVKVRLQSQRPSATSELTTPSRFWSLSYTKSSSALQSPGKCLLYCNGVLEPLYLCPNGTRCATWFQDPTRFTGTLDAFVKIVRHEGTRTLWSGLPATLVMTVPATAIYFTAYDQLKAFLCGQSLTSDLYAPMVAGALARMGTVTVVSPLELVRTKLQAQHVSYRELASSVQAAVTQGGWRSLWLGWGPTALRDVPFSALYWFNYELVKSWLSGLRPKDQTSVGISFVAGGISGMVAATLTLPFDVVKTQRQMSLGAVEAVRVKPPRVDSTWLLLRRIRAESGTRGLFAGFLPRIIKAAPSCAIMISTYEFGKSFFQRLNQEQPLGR
UniProt Q9D1E6: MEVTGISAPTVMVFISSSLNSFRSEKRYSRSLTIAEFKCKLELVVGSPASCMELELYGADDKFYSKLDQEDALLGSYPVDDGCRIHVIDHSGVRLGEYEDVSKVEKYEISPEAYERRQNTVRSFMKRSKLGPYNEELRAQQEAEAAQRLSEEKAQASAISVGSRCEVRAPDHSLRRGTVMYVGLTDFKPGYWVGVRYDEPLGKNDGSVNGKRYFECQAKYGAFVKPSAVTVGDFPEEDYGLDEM
UniProt Q9D8C3: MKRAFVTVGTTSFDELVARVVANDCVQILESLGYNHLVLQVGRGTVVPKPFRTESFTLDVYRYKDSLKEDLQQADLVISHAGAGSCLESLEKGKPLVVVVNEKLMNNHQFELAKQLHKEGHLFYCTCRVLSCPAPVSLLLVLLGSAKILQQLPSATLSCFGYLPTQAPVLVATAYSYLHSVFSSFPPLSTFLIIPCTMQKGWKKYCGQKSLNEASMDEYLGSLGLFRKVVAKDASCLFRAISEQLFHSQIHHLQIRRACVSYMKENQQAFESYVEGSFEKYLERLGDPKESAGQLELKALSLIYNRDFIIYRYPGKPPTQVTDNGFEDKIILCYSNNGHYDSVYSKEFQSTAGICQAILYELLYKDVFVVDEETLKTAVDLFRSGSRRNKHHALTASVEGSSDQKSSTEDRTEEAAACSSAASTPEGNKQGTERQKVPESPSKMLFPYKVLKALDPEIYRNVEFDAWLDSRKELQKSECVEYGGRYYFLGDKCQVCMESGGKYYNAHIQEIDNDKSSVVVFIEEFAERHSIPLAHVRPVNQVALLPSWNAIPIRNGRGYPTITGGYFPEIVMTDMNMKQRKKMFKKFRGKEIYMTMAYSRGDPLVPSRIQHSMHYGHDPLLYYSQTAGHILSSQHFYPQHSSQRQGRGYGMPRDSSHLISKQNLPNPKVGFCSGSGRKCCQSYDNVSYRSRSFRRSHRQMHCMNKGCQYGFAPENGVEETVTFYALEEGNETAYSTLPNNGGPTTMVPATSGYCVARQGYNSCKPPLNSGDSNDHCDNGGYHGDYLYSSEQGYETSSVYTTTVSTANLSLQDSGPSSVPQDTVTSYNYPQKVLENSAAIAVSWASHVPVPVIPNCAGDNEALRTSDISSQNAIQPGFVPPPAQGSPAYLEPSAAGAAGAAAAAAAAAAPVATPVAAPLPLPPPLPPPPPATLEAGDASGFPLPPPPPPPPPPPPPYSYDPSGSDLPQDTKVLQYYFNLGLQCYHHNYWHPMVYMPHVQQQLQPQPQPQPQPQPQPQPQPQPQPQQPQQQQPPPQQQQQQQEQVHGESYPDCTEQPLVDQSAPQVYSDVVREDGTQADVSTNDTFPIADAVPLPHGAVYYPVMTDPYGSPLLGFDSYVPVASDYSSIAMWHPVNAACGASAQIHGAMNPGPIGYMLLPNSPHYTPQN
UniProt Q9D1M7: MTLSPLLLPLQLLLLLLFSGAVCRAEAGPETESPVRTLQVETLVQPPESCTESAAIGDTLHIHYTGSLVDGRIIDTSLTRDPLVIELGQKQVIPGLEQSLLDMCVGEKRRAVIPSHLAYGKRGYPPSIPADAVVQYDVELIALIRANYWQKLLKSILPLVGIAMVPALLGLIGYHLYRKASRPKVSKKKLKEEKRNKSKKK
UniProt Q9D304: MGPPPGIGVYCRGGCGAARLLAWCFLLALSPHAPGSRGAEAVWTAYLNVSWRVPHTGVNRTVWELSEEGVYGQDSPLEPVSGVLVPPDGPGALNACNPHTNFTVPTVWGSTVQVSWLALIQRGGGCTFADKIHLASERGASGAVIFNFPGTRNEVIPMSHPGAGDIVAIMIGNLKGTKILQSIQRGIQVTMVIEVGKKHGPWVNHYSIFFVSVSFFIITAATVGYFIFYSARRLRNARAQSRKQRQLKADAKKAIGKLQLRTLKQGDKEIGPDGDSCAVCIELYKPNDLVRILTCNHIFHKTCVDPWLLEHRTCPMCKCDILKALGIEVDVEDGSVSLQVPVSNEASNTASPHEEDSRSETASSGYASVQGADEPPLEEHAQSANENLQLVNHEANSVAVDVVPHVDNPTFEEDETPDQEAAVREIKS
UniProt Q9D799: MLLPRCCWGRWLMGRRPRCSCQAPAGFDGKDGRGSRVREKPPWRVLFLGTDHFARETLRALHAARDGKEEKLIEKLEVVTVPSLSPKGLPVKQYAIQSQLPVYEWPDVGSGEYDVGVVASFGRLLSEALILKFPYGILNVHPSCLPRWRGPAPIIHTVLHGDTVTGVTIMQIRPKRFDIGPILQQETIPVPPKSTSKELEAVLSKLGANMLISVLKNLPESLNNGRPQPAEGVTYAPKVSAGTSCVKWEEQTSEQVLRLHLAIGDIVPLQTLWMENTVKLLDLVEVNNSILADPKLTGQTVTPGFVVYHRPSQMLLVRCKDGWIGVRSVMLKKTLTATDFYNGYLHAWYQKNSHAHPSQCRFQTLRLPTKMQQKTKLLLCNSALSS

Each target was assayed with CN[C@@H]1C[C@H]2O[C@@](C)([C@@H]1OC)n1c3ccccc3c3c4c(c5c6ccccc6n2c5c31)C(=O)NC4 [staurosporine] (assay: log2 fold change of tryptic peptide abundance, ligand vs vehicle (limited proteolysis) (log2 ratio); higher = more trypsin-susceptible (destabilized)). Conditions: ligand concentration: 20 uM; sample: mouse liver crude lysate; replicate design: treated separately.

Target	log2 fold change
UniProt Q9D7J4 (peptide sequence: ILYESTHLDPERK, peptide start residue: 98)	-0.108
UniProt Q9D1J1 (peptide sequence: ARPTSAGGLSLLPPPPGGK, peptide start residue: 177)	0.135
UniProt Q9D8X2 (peptide sequence: ELEDAYWKDEDK, peptide start residue: 33)	-0.234
UniProt Q9D7B6 (peptide sequence: FCPPLCTMEK, peptide start residue: 143)	0.131
UniProt Q9D4H4 (peptide sequence: AGGEPSPAQPVCK, peptide start residue: 302)	-1.2
UniProt Q9D8K8 (peptide sequence: SSSALQSPGK, peptide start residue: 64)	-0.467
UniProt Q9D1E6 (peptide sequence: SKLGPYNEELR, peptide start residue: 128)	0.151
UniProt Q9D8C3 (peptide sequence: GKPLVVVVNEK, peptide start residue: 93)	0.145
UniProt Q9D1M7 (peptide sequence: AVIPSHLAYGKR, peptide start residue: 111)	-0.00165
UniProt Q9D304 (peptide sequence: TCVDPWLLEHR, peptide start residue: 302)	-0.0736
UniProt Q9D799 (peptide sequence: LTGQTVTPGFVVYHRPSQMLLVR, peptide start residue: 296)	-0.369

A few values from above.
Value for UniProt Q9D8C3 (peptide sequence: GKPLVVVVNEK, peptide start residue: 93) under log2 fold change: 0.145
Value for UniProt Q9D304 (peptide sequence: TCVDPWLLEHR, peptide start residue: 302) under log2 fold change: -0.0736
